# Some of the results follow. Only a few entries rise above the background.
# B1: 4-80.3 (protein)
# chain 1: QVQLQESGPGLVKPSETLSLTCAVSGGSFSSYWWSWIRQPPGKGLEWIGEINGNSGSTNYNPSLKSRVTISKDASKNQFSLKLSSVTAADTAVYYCARYKNVWGRGVLVTVSS
# chain 2: DVVMTQSPLSLPITPGQPASISCRSSQSLVHSNGNTYLSWYQQKPGQPPRRLIYQVSNRDSGVPDRFSGSGAGTDFTLKISRVEAEDVGVYYCGQGTNVPTFGQGTKVEIK
# How the values were obtained:
# Experiment in all cases: fluorescence intensity of antibody binding to polysaccharide-coupled beads; higher = stronger binding
# [1] = target: pneumococcal polysaccharide Pn2
# [2] = target: pneumococcal polysaccharide Pn20A
# [3] = target: pneumococcal polysaccharide Pn20B
# [4] = target: pneumococcal polysaccharide Pn21
# [5] = target: pneumococcal polysaccharide Pn22A
# [6] = target: pneumococcal polysaccharide Pn22F
# [7] = target: pneumococcal polysaccharide Pn23A
# [8] = target: pneumococcal polysaccharide Pn23B
# [9] = target: pneumococcal polysaccharide Pn23F
# [10] = target: pneumococcal polysaccharide Pn24A
# [11] = target: pneumococcal polysaccharide Pn24B
# [12] = target: pneumococcal polysaccharide Pn24F
# [13] = antibody concentration 2337.65 ng/mL
# [14] = antibody concentration 12500 ng/mL
# [15] = antibody concentration 0.1 ng/mL
# [16] = antibody concentration 0.534724 ng/mL
# [17] = antibody concentration 2.8593 ng/mL
# [18] = antibody concentration 15.2894 ng/mL
# [19] = antibody concentration 81.7561 ng/mL
# [20] = antibody concentration 437.17 ng/mL
binder,measurement,setting,value
B1,fluorescence intensity,[1]; [13],27.5 MFI
same,fluorescence intensity,[1]; [14],58 MFI
same,fluorescence intensity,[2]; [15],25.5 MFI
same,fluorescence intensity,[2]; [16],22.5 MFI
same,fluorescence intensity,[2]; [17],23 MFI
same,fluorescence intensity,[2]; [18],22.5 MFI
same,fluorescence intensity,[2]; [19],23 MFI
same,fluorescence intensity,[2]; [20],27 MFI
same,fluorescence intensity,[2]; [13],81 MFI
same,fluorescence intensity,[2]; [14],539 MFI
same,fluorescence intensity,[3]; [15],24.8 MFI
same,fluorescence intensity,[3]; [16],25 MFI
same,fluorescence intensity,[3]; [17],23 MFI
same,fluorescence intensity,[3]; [18],24.5 MFI
same,fluorescence intensity,[3]; [19],24 MFI
same,fluorescence intensity,[3]; [20],24.5 MFI
same,fluorescence intensity,[3]; [13],32.5 MFI
same,fluorescence intensity,[3]; [14],104 MFI
same,fluorescence intensity,[4]; [15],18 MFI
same,fluorescence intensity,[4]; [16],19 MFI
same,fluorescence intensity,[4]; [17],20 MFI
same,fluorescence intensity,[4]; [18],19 MFI
same,fluorescence intensity,[4]; [19],20 MFI
same,fluorescence intensity,[4]; [20],19.5 MFI
same,fluorescence intensity,[4]; [13],27.5 MFI
same,fluorescence intensity,[4]; [14],55.5 MFI
same,fluorescence intensity,[5]; [15],23 MFI
same,fluorescence intensity,[5]; [16],22 MFI
same,fluorescence intensity,[5]; [17],22 MFI
same,fluorescence intensity,[5]; [18],18.8 MFI
same,fluorescence intensity,[5]; [19],20 MFI
same,fluorescence intensity,[5]; [20],23.5 MFI
same,fluorescence intensity,[5]; [13],44 MFI
same,fluorescence intensity,[5]; [14],203 MFI
same,fluorescence intensity,[6]; [15],33 MFI
same,fluorescence intensity,[6]; [16],33 MFI
same,fluorescence intensity,[6]; [17],31.8 MFI
same,fluorescence intensity,[6]; [18],31.5 MFI
same,fluorescence intensity,[6]; [19],32.2 MFI
same,fluorescence intensity,[6]; [20],34.5 MFI
same,fluorescence intensity,[6]; [13],46 MFI
same,fluorescence intensity,[6]; [14],88.5 MFI
same,fluorescence intensity,[7]; [15],21.2 MFI
same,fluorescence intensity,[7]; [16],24 MFI
same,fluorescence intensity,[7]; [17],24.5 MFI
same,fluorescence intensity,[7]; [18],27.8 MFI
same,fluorescence intensity,[7]; [19],32.5 MFI
same,fluorescence intensity,[7]; [20],51 MFI
same,fluorescence intensity,[7]; [13],112 MFI
same,fluorescence intensity,[7]; [14],378 MFI
same,fluorescence intensity,[8]; [15],33.5 MFI
same,fluorescence intensity,[8]; [16],30.5 MFI
same,fluorescence intensity,[8]; [17],31 MFI
same,fluorescence intensity,[8]; [18],31.8 MFI
same,fluorescence intensity,[8]; [19],31.2 MFI
same,fluorescence intensity,[8]; [20],36.2 MFI
same,fluorescence intensity,[8]; [13],39.8 MFI
same,fluorescence intensity,[8]; [14],60.8 MFI
same,fluorescence intensity,[9]; [15],17.2 MFI
same,fluorescence intensity,[9]; [16],20 MFI
same,fluorescence intensity,[9]; [17],17.5 MFI
same,fluorescence intensity,[9]; [18],20 MFI
same,fluorescence intensity,[9]; [19],18 MFI
same,fluorescence intensity,[9]; [20],24 MFI
same,fluorescence intensity,[9]; [13],30.5 MFI
same,fluorescence intensity,[9]; [14],82.5 MFI
same,fluorescence intensity,[10]; [15],17 MFI
same,fluorescence intensity,[10]; [16],16 MFI
same,fluorescence intensity,[10]; [17],16.5 MFI
same,fluorescence intensity,[10]; [18],15.5 MFI
same,fluorescence intensity,[10]; [19],15.5 MFI
same,fluorescence intensity,[10]; [20],16.2 MFI
same,fluorescence intensity,[10]; [13],20.5 MFI
same,fluorescence intensity,[10]; [14],48.8 MFI
same,fluorescence intensity,[11]; [15],20.5 MFI
same,fluorescence intensity,[11]; [16],16.2 MFI
same,fluorescence intensity,[11]; [17],17 MFI
same,fluorescence intensity,[11]; [18],18.2 MFI
same,fluorescence intensity,[11]; [19],19 MFI
same,fluorescence intensity,[11]; [20],19.8 MFI
same,fluorescence intensity,[11]; [13],35.5 MFI
same,fluorescence intensity,[11]; [14],116 MFI
same,fluorescence intensity,[12]; [15],15.5 MFI
same,fluorescence intensity,[12]; [16],17.5 MFI
same,fluorescence intensity,[12]; [17],20.5 MFI
same,fluorescence intensity,[12]; [18],17.5 MFI
same,fluorescence intensity,[12]; [19],17.8 MFI
same,fluorescence intensity,[12]; [20],22 MFI
same,fluorescence intensity,[12]; [13],32.2 MFI
same,fluorescence intensity,[12]; [14],84.5 MFI

# A run of entries of the results above:
binder,measurement,setting,value
B1,fluorescence intensity,[7]; [20],51 MFI
same,fluorescence intensity,[7]; [13],112 MFI
same,fluorescence intensity,[7]; [14],378 MFI
same,fluorescence intensity,[8]; [15],33.5 MFI
same,fluorescence intensity,[8]; [16],30.5 MFI
same,fluorescence intensity,[8]; [17],31 MFI
same,fluorescence intensity,[8]; [18],31.8 MFI
